Data taken from patent US20060234378A1, “Molecular switch regulating neurogenesis” (The Salk Institute For Biological Studies, priority 2005, published 2006).
Results are given in words; binding and its absence hold for the method and conditions named. Binding seen in cells or lysates may run through a third protein. Some results given as binding are weak or reduced against the parent protein; the word gives no strength.

By UniProt entry, the sequences of proteins in these tests, tags left out. Residues count along the entry.
UniProt Q6JHU9, residues 2-2442: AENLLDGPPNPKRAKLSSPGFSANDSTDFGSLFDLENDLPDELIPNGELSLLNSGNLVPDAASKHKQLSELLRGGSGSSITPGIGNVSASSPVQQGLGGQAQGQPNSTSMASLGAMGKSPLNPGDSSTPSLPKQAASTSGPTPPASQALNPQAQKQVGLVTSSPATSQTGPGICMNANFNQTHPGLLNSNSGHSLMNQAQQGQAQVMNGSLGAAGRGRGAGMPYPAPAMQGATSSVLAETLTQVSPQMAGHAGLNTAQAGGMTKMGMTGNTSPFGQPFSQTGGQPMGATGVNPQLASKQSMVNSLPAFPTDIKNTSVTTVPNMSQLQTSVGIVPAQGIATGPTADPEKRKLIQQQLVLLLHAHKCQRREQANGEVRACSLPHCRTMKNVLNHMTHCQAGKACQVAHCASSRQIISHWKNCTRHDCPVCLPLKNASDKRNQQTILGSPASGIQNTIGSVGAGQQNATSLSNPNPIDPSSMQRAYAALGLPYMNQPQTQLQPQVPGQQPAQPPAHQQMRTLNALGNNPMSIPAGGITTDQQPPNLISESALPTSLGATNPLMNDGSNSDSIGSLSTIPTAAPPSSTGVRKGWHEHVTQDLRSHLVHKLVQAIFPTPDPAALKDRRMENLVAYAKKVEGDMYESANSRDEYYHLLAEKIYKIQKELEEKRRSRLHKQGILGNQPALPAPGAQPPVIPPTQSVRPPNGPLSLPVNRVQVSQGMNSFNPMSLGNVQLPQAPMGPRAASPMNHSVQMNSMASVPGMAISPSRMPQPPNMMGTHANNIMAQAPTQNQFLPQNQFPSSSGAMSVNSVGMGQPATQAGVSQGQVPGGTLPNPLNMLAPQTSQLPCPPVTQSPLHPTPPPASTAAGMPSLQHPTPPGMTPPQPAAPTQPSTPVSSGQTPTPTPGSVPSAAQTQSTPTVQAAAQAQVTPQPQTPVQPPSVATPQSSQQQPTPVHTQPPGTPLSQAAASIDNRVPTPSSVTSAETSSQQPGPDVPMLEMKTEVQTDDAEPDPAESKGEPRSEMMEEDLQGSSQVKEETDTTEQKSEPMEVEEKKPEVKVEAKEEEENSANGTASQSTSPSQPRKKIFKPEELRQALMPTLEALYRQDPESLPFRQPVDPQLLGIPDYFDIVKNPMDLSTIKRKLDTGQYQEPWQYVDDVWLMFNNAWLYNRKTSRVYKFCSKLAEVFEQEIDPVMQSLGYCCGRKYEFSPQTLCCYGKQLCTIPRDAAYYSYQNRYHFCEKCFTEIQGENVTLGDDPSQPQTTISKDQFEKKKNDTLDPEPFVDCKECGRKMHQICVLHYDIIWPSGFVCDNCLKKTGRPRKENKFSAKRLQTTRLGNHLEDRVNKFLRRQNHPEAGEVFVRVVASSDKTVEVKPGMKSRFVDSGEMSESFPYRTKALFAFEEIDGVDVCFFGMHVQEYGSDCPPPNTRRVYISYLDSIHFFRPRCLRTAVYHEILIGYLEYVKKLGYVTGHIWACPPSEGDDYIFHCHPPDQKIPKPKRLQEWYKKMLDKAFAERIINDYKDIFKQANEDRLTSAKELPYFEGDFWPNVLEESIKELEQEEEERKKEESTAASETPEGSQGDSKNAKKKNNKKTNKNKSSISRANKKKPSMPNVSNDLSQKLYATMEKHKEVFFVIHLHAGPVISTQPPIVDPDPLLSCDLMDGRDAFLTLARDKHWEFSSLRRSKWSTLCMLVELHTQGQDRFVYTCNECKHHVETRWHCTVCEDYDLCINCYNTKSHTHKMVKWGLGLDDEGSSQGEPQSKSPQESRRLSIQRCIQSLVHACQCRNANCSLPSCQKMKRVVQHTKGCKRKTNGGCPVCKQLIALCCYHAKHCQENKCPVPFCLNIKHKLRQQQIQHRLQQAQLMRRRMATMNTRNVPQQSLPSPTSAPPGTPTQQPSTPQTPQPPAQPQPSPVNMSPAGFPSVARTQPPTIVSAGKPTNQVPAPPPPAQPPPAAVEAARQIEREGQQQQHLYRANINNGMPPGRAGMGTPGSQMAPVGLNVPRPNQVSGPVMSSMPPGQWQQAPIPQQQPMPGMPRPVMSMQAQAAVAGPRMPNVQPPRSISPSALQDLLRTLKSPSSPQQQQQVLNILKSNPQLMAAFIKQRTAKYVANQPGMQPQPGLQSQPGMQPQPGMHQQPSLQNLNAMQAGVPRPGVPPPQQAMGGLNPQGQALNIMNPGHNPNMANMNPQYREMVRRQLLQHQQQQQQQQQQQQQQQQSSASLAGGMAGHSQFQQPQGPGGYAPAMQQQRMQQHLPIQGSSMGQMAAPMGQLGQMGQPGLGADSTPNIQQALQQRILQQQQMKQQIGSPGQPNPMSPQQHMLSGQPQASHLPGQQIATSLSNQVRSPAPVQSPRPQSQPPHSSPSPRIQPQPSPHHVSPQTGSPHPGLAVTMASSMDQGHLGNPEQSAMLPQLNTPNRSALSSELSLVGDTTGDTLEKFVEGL
UniProt Q9QXN1: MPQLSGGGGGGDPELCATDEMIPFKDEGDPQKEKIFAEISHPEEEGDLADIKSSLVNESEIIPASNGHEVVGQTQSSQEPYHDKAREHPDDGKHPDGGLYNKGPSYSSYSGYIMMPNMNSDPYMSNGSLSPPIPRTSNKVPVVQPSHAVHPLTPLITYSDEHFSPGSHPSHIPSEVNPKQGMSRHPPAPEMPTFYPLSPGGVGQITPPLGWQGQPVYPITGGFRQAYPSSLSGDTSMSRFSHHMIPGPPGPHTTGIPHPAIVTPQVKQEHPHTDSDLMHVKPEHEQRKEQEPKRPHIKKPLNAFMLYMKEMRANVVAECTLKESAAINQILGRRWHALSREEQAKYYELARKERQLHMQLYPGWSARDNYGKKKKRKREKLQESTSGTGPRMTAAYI

Key:
[1] = target: histone deacetylase-1 (rat) (UniProt Q4QQW4); experiment: co-immunoprecipitation from nuclear extracts of neural stem cells, protein G beads, Western blot
[2] = target: CREB-binding protein (rat) (UniProt Q6JHU9); experiment: co-immunoprecipitation from nuclear extracts of differentiating cells, protein G beads, Western blot
LEF1 (rat) = LEF1 (rat) (UniProt Q9QXN1); experiment: as above

For “C-terminal-binding protein-1 (from UniProt Q9Z2F5 1-430)”, the binding [1] was “binds”.

B1: β-catenin (protein, rat, UniProt Q9WU82 2-781, looked up)
chain: ATQADLMELDMAMEPDRKAAVSHWQQQSYLDSGIHSGATTTAPSLSGKGNPEEEDVDTSQVLYEWEQGFSQSFTQEQVADIDGQYAMTRAQRVRAAMFPETLDEGMQIPSTQFDAAHPTNVQRLAEPSQMLKHAVVNLINYQDDAELATRAIPELTKLLNDEDQVVVNKAAVMVHQLSKKEASRHAIMRSPQMVSAIVRTMQNTNDVETARCTAGTLHNLSHHREGLLAIFKSGGIPALVKMLGSPVDSVLFYAITTLHNLLLHQEGAKMAVRLAGGLQKMVALLNKTNVKFLAITTDCLQILAYGNQESKLIILASGGPQALVNIMRTYTYEKLLWTTSRVLKVLSVCSSNKPAIVEAGGMQALGPHLTDPSQRLVQNCLWTLRNLSDAATKQEGMEGLLGTLVQLLGSDDINVVTCAAGILSNLTCNNYKNKMMVCQVGGIEALVRTVLRAGDREDITEPAICALRHLTSRHQEAEMAQNAVRLHYGLPVVVKLLHPPSHWPLIKATVGLIRNLALCPANHAPLREQGAIPRLVQLLVRAHQDTQRRTSMGGTQQQFVEGVRMEEIVEGCTGALHILARDVHNRIVIRGLNTIPLFVQLLYSPIENIQRVAAGVLCELAQDKEAAEAIEAEGATAPLTELLHSRNEGVATYAAAVLFRMSEDKPQDYKKRLSVELTSSLFRTEPMAWNETADLGLDIGAQGEALGYRQDDPSYRSFHSGGYGQDALGMDPMMEHEMGGHHPGADYPVDGLPDLGHAQDLMDGLPPGDSNQLAWFDTDL
In the case of B1, the binding [2] is reported as “binds” and the binding (LEF1 (rat)) is reported as “binds”.
